Measurements from US11852634B2, “Use of AKT phosphorylation as a biomarker for prognosing neurodegenerative diseases and treating same” (Yeda Research and Development Co. Ltd., priority 2011, dated 2023).
At least one peptide structure holds a part that was inferred or is arguable (an end, a ring closure or a residue). Marks after values point to notes of the source that are not given here. Where no end group is shown, it is not given here.

Legend:
Akt [1] = test: pAkt and tAkt in lymph node and muscle of SOD1 mice at 120 days; type: in vivo; details: for Lymphocyte pAkt: 200 μg IV and 200 μg IP from 75 days
SOD1 mice [2] = test: Responsiveness to treatment: neurologic score and weight loss of SOD1 mice at 120 days; type: in vivo; details: for Average score (age 110-120 days): neurologic score; for Weight loss: compared to the weight on the week prior to treatment
Akt [3] = test: Akt phosphorylation in lymph nodes of injected mice, ELISA; type: in vivo; details: mice injected with 400 μl, after 30 minutes, vs non-treated mice, FIG. 1B
[4] = system: SOD1G93A mouse model of familial ALS; test: Survival and Rotarod disease duration, treatment initiated at 75 days, IV or IN; type: in vivo, mice; details: for Late disease (Y < 120) Duration: Rotarod index < 120
Akt [5] = test: Akt phosphorylation in Raw264.7 macrophages, western blot; type: cell-based; details: 50 mM peptide, FIG. 1A
SOD1 mice [6] = test: Neurologic disability score of SOD1 mice treated from disease onset; type: in vivo; details: weeks 16-19, daily treatment from disease onset (about 90 days), FIG. 3
[7] = 200 μg IV+200 μg IP daily from 75 days, at 120 days, n = 8
[8] = lymph nodes and muscles combined, at 120 days
[9] = non responding mice (n = 2), listed as peptide of the invention

Substance: LPPLPYP [SEQ ID NO: 1, LPPLPYP]
- Lymph node pAkt (Akt [1]; [7]): 129
- Lymph node pAkt/tAkt (Akt [1]; [7]): 1.35
- Muscles pAkt (Akt [1]; [7]): 149
- Muscles pAkt/tAkt (Akt [1]; [7]): 1.83
- Percent change of average pAKT vs PBS (Akt [1]; Table 6): 16%
- Lymph node pAKT ratio (Akt [1]; Table 6, at 120 days): 1.35
- Muscle pAKT ratio (Akt [1]; Table 6, at 120 days): 1.83
- Difference in muscles pAkt vs control (Akt [1]; at 120 days): −1%
- Effect on Akt phosphorylation of muscle cells (Akt [1]; at 120 days): minimal effect
- Percentage of mice with high pAkt content (Akt [1]; at 120 days): 62.5%
- Average pAKT (Akt [1]; [8]): 140
- Average pAKT ratio (Akt [1]; [8]): 1.61
- Effect on pAkt in non-responders relative to responders (Akt [1]; non responding mice (n = 2)): −37%
- Lymphocyte pAkt (Akt [1]; non responding mice (n = 2), at 120 days): 90
- Effect on pAkt in non-responders relative to responders (Akt [1]; [9]): −37%
- Lymphocyte pAkt (Akt [1]; responding mice (n = 6), at 120 days): 142
- Average score (age 110-120 days) (SOD1 mice [2]; non responding mice (n = 2)): 1.1
- Average score (age 110-120 days) (SOD1 mice [2]; responding mice (n = 6)): 0.08
- Effect on score in non-responders relative to responders (SOD1 mice [2]; non responding mice (n = 2)): +1400%**
- Weight loss (SOD1 mice [2]; non responding mice (n = 2)): 6.3%
- Weight loss (SOD1 mice [2]; [9]): 6.3%
- Effect on score in non-responders relative to responders (SOD1 mice [2]; [9]): 93%
- Effect on score relative to placebo (100%) (SOD1 mice [2]; responding mice (n = 6)): −90%
- Weight loss (SOD1 mice [2]; responding mice (n = 6)): 3.3%
- Akt phosphorylation in lymph nodes (Akt [3]): higher
- All stages of the disease Duration ([4]; 200 μg IV (n = 10)): 51.0 days
- Early disease (180 > Y > 120) Duration ([4]; 200 μg IV (n = 10)): 16.2 days
- Late disease (Y < 120) Duration ([4]; 200 μg IV (n = 10)): 34.8 days
- All stages of the disease Duration ([4]; 400 μg IN (n = 10)): 44.6 days
- Early disease (180 > Y > 120) Duration ([4]; 400 μg IN (n = 10)): 17.7 days
- Late disease (Y < 120) Duration ([4]; 400 μg IN (n = 10)): 26.9 days
- All stages of the disease Duration ([4]; 400 μg IV (n = 10)): 41.5 days
- Early disease (180 > Y > 120) Duration ([4]; 400 μg IV (n = 10)): 15.8 days
- Late disease (Y < 120) Duration ([4]; 400 μg IV (n = 10)): 25.7 days
- All stages of the disease Duration ([4]; All treatments (n = 30)): 45.7 days
- Early disease (180 > Y > 120) Duration ([4]; All treatments (n = 30)): 16.6 days
- Late disease (Y < 120) Duration ([4]; All treatments (n = 30)): 29.2 days
- Effect on disease onset or disease progression at the earlier stages ([4]; all treatments vs control): not affecting
- Prolongation of the duration at the late stage ([4]; all treatments vs control): 88%
- Akt phosphorylation (Akt [5]): induced
- Neurologic score lower by a factor, treated mice compared to controls (SOD1 mice [6]): about 2
